PubChem BioAssay AID652259, Drosophila RNAi Screening Center | 2013
Test: 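Identify new Wingless signalling regulators in fly cells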 (primary screen). System: Drosophila clone 8 imaginal disc epithelial cells. Knock-down reagent: long dsRNA against Drosophila genes. Conditions: pathway stimulated by co-transfected Wingless expression plasmid. Read-out: 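Firefly luciferase from a tcf-site Wingless reporter, measured alongside co-transfected Renilla luciferase that tracks transfection; pathway stimulated by a Wingless plasmid; the firefly-to-Renilla ratio is not deposited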. Reading the numbers: firefly reporter light: higher = more Wg reporter light, before normalisation; Renilla control light: higher = more transfected or surviving cells. Active means: 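a knock-down is a candidate when at least two out of four statistical tests show it departing from its plate mean; one test alone signals a weak candidate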. Calls: active = candidate regulator (raises or lowers reporter); inactive = not a candidate.
The deposit covers about 22,000 reagents; this is a random part of those with a known target gene and a result. In the full data, 233 (1.1%) are marked active. 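Light values are raw, unnormalised plate reads; the ratio scores behind the reporter calls were not deposited.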 Unmarked entries are inactive. Reagents against one gene are numbered here. Names joined by + are all predicted targets of the reagent. Not given: the amount of reagent, the time to read-out, the dose of the treatment.

With knock-down of CG42374 + Mettl5, the record shows firefly reporter light, replicate 1 = 9180; Renilla control light, replicate 1 = 3047.
CG12990 scored firefly reporter light, replicate 1 = 14628; Renilla control light, replicate 1 = 7879.
For beat-Ia, the values are firefly reporter light, replicate 1 = 2485; firefly reporter light, replicate 2 = 10544; Renilla control light, replicate 1 = 916; Renilla control light, replicate 2 = 3408.
Depletion of CG31871 #1 resulted in: firefly reporter light, replicate 1 = 2898; firefly reporter light, replicate 2 = 8176; Renilla control light, replicate 1 = 1148; Renilla control light, replicate 2 = 2987.
For CG31871 #2, the values are firefly reporter light, replicate 1 = 1857; firefly reporter light, replicate 2 = 7051; Renilla control light, replicate 1 = 851; Renilla control light, replicate 2 = 2377.
CG10864 scored firefly reporter light, replicate 1 = 14189; Renilla control light, replicate 1 = 2681.
For spag, the values are firefly reporter light, replicate 1 = 2096; firefly reporter light, replicate 2 = 6066; Renilla control light, replicate 1 = 391; Renilla control light, replicate 2 = 1872.
With knock-down of zld #1, the record shows firefly reporter light, replicate 1 = 24311; Renilla control light, replicate 1 = 10490.
zld #2 gave firefly reporter light, replicate 1 = 5.10e5; firefly reporter light, replicate 2 = 5.04e5; Renilla control light, replicate 1 = 1.21e5; Renilla control light, replicate 2 = 1.03e5.
Depletion of CG5004 #1 gave: firefly reporter light, replicate 1 = 23008; Renilla control light, replicate 1 = 9851.
After knock-down of CG5004 #2, the screen gave firefly reporter light, replicate 1 = 28992; Renilla control light, replicate 1 = 14259.
Against CG5004 #3, the values are firefly reporter light, replicate 1 = 17835; Renilla control light, replicate 1 = 4673.

2 entries from above, set out differently:
gene knocked down | reagent no. | firefly reporter light, replicate 1 | firefly reporter light, replicate 2 | Renilla control light, replicate 1 | Renilla control light, replicate 2
CG31871 | 2 | 1857 | 7051 | 851 | 2377
CG10864 | 1 | 14189 | – | 2681 | –
